According to the supplement of paper PMC11732987, “Enantioselective OTUD7B fragment discovery through chemoproteomics screening and high-throughput optimisation” (Communications Chemistry, 2025):
The list shows a part of the results. The data scatter; read single values as rough.

Sequences of proteins named here, by UniProt entry; tags and fusion partners are left off. A change or cut given only in a name is not applied to a line headed by its entry.
UniProt P60981: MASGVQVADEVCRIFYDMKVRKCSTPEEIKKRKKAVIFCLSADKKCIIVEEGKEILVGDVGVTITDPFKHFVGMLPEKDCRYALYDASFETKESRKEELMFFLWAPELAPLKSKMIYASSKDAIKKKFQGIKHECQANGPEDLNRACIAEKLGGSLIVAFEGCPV
UniProt Q02487, whole entry, looked up: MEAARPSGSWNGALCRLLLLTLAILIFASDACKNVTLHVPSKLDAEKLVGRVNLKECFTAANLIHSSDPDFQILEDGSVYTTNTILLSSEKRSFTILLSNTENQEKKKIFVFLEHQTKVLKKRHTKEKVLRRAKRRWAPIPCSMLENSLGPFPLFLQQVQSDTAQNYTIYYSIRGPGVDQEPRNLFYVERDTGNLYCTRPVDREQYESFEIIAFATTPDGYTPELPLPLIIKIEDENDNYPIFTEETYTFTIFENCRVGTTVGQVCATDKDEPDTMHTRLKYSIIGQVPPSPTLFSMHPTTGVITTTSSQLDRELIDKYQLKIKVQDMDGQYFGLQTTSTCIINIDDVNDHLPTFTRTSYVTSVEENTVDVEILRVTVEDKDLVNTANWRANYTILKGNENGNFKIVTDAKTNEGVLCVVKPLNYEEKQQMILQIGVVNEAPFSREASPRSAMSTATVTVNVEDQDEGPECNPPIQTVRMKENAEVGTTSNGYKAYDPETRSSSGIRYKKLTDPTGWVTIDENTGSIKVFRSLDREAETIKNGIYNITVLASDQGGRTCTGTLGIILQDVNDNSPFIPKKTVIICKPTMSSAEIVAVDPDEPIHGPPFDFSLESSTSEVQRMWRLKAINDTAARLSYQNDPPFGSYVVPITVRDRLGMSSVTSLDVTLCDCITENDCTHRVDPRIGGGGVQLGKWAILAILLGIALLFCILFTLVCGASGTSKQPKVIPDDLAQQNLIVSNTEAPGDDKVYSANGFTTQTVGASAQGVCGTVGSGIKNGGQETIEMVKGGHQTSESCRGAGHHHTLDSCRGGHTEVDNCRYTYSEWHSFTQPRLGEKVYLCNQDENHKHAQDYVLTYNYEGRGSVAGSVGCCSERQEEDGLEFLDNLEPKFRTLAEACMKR
UniProt Q86Y13: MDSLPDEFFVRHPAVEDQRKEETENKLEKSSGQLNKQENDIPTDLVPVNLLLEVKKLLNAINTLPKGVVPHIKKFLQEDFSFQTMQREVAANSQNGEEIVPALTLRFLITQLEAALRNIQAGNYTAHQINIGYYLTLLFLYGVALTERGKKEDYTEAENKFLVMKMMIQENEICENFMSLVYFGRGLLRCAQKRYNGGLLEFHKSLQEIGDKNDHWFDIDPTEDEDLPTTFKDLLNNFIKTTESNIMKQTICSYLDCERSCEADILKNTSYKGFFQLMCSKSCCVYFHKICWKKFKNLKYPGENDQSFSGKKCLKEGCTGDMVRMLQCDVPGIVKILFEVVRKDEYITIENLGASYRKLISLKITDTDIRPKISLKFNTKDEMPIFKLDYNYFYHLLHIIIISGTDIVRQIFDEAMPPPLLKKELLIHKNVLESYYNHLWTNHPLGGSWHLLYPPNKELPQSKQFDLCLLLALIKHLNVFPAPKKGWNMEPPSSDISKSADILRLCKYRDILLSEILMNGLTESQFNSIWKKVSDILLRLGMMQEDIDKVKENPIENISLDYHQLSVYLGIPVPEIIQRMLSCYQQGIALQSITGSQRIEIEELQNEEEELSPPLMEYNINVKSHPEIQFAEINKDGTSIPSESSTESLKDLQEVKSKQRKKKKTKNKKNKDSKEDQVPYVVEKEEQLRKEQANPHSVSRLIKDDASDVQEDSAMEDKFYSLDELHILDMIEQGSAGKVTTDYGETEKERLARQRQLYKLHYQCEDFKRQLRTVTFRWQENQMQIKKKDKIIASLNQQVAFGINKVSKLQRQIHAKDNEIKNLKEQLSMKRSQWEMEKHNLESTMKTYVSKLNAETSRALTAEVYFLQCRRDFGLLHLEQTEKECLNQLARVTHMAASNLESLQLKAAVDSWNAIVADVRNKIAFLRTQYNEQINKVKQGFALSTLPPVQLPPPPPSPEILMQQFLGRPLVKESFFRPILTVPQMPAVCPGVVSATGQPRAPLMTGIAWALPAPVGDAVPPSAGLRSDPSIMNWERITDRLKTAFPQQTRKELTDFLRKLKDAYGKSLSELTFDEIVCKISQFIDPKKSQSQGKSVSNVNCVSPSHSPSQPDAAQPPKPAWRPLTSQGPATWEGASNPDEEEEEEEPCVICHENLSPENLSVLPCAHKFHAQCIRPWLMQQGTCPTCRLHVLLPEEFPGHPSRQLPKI
UniProt P55199: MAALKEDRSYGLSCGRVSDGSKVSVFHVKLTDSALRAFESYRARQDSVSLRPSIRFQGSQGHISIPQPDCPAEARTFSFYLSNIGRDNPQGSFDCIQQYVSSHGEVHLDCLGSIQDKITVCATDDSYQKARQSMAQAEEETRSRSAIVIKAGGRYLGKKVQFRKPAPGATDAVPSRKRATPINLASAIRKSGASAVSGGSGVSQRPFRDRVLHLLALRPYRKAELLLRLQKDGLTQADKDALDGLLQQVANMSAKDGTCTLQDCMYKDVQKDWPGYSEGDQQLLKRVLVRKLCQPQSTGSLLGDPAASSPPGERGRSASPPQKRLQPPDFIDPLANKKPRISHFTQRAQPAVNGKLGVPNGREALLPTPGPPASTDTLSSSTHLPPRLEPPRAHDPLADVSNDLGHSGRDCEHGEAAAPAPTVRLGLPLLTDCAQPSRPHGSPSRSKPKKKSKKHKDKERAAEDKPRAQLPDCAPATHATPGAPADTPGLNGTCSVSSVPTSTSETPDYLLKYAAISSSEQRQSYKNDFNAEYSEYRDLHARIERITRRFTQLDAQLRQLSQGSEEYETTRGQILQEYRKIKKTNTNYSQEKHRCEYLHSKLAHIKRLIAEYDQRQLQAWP
UniProt Q9BQI3, whole entry, looked up: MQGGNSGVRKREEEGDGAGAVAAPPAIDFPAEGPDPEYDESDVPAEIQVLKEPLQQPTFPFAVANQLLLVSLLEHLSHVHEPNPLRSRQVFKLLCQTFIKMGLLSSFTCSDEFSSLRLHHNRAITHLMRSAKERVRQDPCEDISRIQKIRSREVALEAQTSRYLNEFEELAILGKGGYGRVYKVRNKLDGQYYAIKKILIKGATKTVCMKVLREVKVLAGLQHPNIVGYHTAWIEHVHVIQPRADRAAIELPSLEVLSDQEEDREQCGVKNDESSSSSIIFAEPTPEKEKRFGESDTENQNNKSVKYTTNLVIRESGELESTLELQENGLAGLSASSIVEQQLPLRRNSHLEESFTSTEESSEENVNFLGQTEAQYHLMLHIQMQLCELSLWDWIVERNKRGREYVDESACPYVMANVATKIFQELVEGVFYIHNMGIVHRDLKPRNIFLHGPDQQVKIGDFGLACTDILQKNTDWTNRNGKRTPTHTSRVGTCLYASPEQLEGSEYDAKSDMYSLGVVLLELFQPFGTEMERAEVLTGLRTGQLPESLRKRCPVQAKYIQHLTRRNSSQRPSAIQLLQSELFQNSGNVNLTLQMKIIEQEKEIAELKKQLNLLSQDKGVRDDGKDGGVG
UniProt Q9GZT9: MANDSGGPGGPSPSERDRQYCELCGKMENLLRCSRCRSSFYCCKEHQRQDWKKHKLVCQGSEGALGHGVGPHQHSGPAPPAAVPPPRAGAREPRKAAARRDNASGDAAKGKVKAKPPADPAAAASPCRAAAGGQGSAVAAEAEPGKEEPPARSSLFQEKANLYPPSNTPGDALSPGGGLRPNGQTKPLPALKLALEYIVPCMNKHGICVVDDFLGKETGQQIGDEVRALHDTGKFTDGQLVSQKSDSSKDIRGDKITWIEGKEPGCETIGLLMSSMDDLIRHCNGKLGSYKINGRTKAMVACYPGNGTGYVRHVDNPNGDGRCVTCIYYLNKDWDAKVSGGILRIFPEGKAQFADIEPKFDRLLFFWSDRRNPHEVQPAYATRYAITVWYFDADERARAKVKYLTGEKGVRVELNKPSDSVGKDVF
UniProt O15371, whole entry, looked up: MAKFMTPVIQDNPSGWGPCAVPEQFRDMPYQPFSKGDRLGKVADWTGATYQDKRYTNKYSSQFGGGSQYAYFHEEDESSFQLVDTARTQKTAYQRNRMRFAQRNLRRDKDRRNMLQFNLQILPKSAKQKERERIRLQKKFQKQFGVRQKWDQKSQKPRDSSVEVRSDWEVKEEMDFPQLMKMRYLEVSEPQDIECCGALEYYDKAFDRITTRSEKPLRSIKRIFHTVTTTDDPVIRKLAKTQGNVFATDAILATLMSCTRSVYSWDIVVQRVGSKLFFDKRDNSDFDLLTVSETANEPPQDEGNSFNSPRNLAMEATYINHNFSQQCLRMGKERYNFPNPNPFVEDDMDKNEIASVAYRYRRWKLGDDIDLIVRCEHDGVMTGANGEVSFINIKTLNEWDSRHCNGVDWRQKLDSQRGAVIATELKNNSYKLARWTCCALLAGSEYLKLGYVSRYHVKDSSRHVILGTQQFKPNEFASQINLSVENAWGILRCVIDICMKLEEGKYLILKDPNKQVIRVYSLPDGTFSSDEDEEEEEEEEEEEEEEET
UniProt P05198, whole entry, looked up: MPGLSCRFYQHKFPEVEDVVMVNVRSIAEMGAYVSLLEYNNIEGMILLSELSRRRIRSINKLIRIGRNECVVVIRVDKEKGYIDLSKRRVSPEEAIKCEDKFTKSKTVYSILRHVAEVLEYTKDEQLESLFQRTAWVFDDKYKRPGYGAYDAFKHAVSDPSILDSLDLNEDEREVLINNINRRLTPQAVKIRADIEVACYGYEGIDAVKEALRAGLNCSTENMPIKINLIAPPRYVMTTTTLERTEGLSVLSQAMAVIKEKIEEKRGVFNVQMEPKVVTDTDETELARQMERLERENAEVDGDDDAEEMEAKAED
UniProt Q9BQ52: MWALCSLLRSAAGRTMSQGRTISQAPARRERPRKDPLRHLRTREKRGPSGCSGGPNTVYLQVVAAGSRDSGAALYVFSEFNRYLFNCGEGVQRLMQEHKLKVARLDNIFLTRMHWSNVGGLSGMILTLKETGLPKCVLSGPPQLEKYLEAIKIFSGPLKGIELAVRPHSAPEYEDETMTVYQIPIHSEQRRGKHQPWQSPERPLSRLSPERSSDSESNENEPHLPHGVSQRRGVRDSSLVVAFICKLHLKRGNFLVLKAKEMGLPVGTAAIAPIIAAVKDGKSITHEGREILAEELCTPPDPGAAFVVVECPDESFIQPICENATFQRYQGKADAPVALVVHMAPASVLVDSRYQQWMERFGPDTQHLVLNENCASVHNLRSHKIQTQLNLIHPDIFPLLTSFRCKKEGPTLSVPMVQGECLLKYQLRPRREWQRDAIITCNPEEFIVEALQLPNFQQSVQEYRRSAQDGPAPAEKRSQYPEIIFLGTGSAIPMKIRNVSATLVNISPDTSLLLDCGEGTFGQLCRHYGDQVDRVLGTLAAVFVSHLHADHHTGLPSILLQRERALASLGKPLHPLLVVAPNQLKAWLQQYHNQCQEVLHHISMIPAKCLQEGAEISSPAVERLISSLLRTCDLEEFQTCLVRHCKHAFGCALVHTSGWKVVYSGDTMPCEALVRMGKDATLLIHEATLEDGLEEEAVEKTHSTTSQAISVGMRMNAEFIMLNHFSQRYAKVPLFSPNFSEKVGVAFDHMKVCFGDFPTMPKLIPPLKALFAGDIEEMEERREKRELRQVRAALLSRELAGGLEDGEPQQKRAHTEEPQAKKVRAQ
UniProt Q05639, whole entry, looked up: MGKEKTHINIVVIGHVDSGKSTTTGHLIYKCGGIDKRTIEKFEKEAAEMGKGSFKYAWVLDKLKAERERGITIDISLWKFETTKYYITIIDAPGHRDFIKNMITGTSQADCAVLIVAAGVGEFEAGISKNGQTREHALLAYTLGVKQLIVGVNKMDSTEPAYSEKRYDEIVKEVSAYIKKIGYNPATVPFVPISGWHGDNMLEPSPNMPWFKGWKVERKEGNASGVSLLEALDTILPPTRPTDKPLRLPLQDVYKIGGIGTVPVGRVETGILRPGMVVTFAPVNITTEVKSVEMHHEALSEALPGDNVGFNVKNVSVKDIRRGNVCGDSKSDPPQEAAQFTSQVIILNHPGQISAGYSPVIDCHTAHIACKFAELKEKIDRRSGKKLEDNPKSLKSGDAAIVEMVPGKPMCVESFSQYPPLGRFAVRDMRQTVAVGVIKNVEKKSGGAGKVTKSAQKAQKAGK
UniProt O75461: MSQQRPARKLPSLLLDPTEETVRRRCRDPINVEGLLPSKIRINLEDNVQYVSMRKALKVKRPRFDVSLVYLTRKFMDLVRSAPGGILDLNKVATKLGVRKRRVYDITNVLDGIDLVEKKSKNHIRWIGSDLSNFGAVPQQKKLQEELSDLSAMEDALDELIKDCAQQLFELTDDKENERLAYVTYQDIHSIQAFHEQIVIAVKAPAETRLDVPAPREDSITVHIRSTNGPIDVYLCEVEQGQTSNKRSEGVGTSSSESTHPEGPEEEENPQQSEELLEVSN

Each target was assayed with ClCC(=O)N[C@H]1CCCc2ccccc12 (assay: log2 mean competition ratio of IA-DTB cysteine labelling (DMSO/compound) (log2 ratio); higher = stronger cysteine engagement by compound). Settings: 50 µM; treatment time: 4 h; cell line lysate: HEK293T.
Experimental: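 IA-DTB competitive cysteine chemoproteomics in HEK293T RIPA lysate. Lysates were treated with compound 29 or 30 at 50 or 200 µM for 4 h, then IA-DTB (500 µM, 1 h), trypsin-digested, NeutrAvidin-enriched and analysed by diaPASEF. Competition ratio = intensity DMSO / intensity compound (n=4 treated, n=64 DMSO); binding: mean log2 CR ≥ 1 and p ≤ 0.05 plus QC filters. Target is the cysteine site.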

Row | Target | log2 mean competition ratio
1 | DSTN C80 (UniProt P60981) | -0.484
2 | DUS2 C116 (UniProt Q9NX74) | -0.0715
3 | DSP C1069 (UniProt P15924) | -0.239
4 | DSC2 C841 (UniProt Q02487) | -0.25
5 | DZIP3 C318 (UniProt Q86Y13) | -0.0503
6 | ELL C411 (UniProt P55199) | 0.868
7 | EIF2AK1 C140 (UniProt Q9BQI3) | -0.181
8 | ELL C121 (UniProt P55199) | -0.335
9 | EGLN1 C127 (UniProt Q9GZT9) | 0.0577
10 | EDC3 C353 (UniProt Q96F86) | 0.21
11 | EIF3D C404 (UniProt O15371) | -0.348
12 | EBF2 C254 | -0.0691
13 | EIF2S1 C70 (UniProt P05198) | -0.455
14 | ELL2 C308 | -0.229
15 | DYNC2H1 C1465 (UniProt Q8NCM8) | -0.278
16 | EIF2S1 C199 (UniProt P05198) | 0.613
17 | ELAC2 C87 (UniProt Q9BQ52) | 0.312
18 | E2F7 C400 | -0.322
19 | EEF1A2 C326 (UniProt Q05639) | -0.205
20 | E2F6 C26 (UniProt O75461) | -0.337

Same assay, conditions: 200 µM; treatment time: 4 h; cell line lysate: HEK293T

Row | Target | log2 mean competition ratio
21 | DSTN C80 (UniProt P60981) | -0.385
22 | DUS2 C116 (UniProt Q9NX74) | -0.242
23 | DSP C1069 (UniProt P15924) | 0.134
24 | DSC2 C841 (UniProt Q02487) | -0.0835
25 | DZIP3 C318 (UniProt Q86Y13) | 0.0875
26 | ELL C411 (UniProt P55199) | -0.0164
27 | EIF2AK1 C140 (UniProt Q9BQI3) | 0.143
28 | ELL C121 (UniProt P55199) | 0.227
29 | EGLN1 C127 (UniProt Q9GZT9) | 0.197
30 | EDC3 C353 (UniProt Q96F86) | 0.109
31 | EIF3D C404 (UniProt O15371) | 0.0302
32 | EBF2 C254 | 0.0757
33 | EIF2S1 C70 (UniProt P05198) | 0.151
34 | ELL2 C308 | 0.115
35 | DYNC2H1 C1465 (UniProt Q8NCM8) | -0.184
36 | EIF2S1 C199 (UniProt P05198) | -0.237
37 | ELAC2 C87 (UniProt Q9BQ52) | 0.0918
38 | E2F7 C400 | 0.0072
39 | EEF1A2 C326 (UniProt Q05639) | 0.191
40 | E2F6 C26 (UniProt O75461) | 0.104
